# Assay results reported in PMC10575931.
# Amino acid sequences for entries named in this document (tags omitted). A change or cut given only in a name is not applied to a line headed by its entry.
# UniProt Q8TD16: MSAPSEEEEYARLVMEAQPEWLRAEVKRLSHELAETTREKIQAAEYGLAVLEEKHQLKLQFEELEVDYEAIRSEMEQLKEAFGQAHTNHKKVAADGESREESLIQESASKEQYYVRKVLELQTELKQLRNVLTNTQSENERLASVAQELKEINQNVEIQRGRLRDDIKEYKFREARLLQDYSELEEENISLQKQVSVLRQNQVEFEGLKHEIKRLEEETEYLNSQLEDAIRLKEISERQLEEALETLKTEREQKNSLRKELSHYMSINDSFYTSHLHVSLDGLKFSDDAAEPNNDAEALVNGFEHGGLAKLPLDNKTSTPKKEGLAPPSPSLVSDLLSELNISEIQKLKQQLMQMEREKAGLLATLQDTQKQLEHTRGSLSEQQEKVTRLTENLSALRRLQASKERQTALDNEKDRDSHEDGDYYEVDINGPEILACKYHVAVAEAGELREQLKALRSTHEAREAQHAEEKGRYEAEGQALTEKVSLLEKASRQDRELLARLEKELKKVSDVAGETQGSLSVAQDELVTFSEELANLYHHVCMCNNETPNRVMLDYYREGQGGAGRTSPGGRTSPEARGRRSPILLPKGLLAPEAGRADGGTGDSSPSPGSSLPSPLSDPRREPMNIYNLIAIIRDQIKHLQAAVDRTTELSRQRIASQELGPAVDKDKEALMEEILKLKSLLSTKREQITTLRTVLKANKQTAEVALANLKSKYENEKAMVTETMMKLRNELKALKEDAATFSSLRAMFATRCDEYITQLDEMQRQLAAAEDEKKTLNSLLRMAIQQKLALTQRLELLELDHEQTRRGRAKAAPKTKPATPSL
# UniProt P40337: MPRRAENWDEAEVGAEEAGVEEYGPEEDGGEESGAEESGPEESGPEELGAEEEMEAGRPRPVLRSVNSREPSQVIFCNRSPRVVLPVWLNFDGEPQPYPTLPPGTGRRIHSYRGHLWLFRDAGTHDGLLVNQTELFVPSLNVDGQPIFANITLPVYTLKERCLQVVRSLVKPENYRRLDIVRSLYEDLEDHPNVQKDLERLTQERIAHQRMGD
# UniProt P42224: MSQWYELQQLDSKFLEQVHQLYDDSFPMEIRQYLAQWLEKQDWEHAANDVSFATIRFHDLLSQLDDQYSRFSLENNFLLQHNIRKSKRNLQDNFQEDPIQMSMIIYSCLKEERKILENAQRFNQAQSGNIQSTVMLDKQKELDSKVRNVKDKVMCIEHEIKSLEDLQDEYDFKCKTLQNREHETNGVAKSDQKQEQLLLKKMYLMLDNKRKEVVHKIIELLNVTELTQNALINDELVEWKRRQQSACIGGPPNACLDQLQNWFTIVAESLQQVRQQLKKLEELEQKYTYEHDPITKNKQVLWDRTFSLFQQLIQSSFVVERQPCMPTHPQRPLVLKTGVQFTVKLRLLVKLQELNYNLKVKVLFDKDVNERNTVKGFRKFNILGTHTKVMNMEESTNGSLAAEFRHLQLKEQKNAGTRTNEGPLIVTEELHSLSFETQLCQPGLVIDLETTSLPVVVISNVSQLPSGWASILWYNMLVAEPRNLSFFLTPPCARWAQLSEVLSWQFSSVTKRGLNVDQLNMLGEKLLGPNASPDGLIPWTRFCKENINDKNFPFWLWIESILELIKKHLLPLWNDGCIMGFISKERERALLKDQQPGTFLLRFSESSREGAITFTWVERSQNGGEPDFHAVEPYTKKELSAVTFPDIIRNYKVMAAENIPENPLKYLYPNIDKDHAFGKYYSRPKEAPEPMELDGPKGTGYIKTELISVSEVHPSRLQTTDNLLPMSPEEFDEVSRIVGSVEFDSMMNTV
# UniProt P40763: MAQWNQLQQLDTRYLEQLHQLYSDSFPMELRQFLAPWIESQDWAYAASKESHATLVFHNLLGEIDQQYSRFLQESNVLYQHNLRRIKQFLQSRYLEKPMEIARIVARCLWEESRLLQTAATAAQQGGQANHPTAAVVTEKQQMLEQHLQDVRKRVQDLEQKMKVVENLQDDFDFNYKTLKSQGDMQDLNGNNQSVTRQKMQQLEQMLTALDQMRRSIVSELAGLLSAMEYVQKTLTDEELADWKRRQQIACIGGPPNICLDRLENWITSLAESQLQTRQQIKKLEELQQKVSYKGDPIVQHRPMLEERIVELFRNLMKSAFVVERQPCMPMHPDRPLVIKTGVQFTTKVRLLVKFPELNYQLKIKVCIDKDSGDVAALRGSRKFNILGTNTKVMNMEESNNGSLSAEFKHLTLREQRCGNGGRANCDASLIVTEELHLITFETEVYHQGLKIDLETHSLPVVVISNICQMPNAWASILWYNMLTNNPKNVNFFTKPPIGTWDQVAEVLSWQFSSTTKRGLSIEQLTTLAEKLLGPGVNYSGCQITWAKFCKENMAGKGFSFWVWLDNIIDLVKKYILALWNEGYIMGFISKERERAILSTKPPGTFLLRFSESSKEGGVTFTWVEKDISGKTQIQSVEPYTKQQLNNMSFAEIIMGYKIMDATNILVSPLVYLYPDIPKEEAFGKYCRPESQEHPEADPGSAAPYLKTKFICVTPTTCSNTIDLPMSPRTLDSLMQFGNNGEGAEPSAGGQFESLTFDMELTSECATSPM
# No constants are given. Whether binding was seen depends on the method and setting. Binding seen in cells or lysates may run through a third protein. Some binding calls cover weakened binding; strength is not graded here. For some of these results: Sequences can lack the tags named with a protein.
# Key:
# [1] = biological target: BICD2 (construct of Fig. 2C and Fig. 6B, tag not given) (UniProt Q8TD16); assay: co-IP; HEK293T transfected with the indicated plasmids; with or without 10 μM MG132 for 10 h (Fig. 2C) or 10 μM Vemurafenib for 12 h (Fig. 6B); lysis buffer 10% glycerol, 0.5% NP-40, 150 mM NaCl, 0.1 mM EDTA; precipitated with 'appropriate antibodies'; immunoblot
# [2] = biological target: FLAG-tagged BICD2, full length (UniProt Q8TD16); assay: co-IP; HEK293T co-transfected with a GFP-tagged and a FLAG-tagged protein; lysates precipitated with anti-FLAG antibody; immunoblot with anti-GFP antibody; with or without 1 μM RSL3 for 6 h (Fig. 7C) (Fig. 7B, C, E, H)
# mutant BICD2 (S615D) = mutant BICD2 (S615D) (UniProt Q8TD16); assay: co-IP; HEK293T co-transfected; 10 μM MG132 for 10 h before collection; lysates precipitated with S-protein Agarose beads (S-tagged BICD2 as bait); immunoblot with anti-FLAG antibody (Fig. 2E, Fig. 6C)
# [3] = biological target: S-HA-tagged BICD2, full length (UniProt Q8TD16); assay: as above
# [4] = biological target: FLAG-tagged VHL, full length (UniProt P40337); assay: co-IP; HEK293T co-transfected with GFP-tagged BICD2 and FLAG-tagged VHL constructs; 10 μM MG132 for 10 h before collection; lysates precipitated with anti-FLAG M2 beads; immunoblot with anti-GFP antibody (Fig. 2G)
# FLAG-tagged STAT4 = biological target: T1, FLAG-tagged STAT4 (UniProt Q14765); assay: co-IP; HEK293T co-transfected with a GFP-tagged and a FLAG-tagged protein; lysates precipitated with anti-FLAG antibody; immunoblot with anti-GFP antibody; with or without 1 μM RSL3 for 6 h (Fig. 7C) (Fig. 7B, C, E, H)
# T1 sequence: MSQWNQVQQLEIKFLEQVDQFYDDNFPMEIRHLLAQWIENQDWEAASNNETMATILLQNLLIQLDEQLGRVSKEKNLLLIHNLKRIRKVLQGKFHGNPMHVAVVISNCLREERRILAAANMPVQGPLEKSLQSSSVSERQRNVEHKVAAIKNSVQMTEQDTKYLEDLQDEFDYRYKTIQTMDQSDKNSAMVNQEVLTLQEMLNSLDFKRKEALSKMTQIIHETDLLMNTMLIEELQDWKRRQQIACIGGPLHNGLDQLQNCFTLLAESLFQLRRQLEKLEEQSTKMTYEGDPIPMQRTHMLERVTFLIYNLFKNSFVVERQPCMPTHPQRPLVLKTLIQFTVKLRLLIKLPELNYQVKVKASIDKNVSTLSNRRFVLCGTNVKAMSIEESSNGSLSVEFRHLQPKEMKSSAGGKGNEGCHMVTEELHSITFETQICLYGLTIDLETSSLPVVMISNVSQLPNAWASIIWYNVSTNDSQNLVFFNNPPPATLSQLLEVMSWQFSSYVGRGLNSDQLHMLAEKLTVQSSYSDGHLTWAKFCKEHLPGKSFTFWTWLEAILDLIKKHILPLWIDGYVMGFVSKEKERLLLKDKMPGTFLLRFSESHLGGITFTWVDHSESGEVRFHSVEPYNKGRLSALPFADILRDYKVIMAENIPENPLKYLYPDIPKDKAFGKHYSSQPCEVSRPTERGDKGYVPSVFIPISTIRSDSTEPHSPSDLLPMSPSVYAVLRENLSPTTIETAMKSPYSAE
# [5] = biological target: FLAG-tagged STAT1, full length (UniProt P42224); assay: as above
# FLAG-tagged STAT3 = FLAG-tagged STAT3 (UniProt P40763); assay: as above
# FLAG-tagged STAT6 = biological target: T2, FLAG-tagged STAT6 (UniProt P42226); assay: as above
# T2 sequence: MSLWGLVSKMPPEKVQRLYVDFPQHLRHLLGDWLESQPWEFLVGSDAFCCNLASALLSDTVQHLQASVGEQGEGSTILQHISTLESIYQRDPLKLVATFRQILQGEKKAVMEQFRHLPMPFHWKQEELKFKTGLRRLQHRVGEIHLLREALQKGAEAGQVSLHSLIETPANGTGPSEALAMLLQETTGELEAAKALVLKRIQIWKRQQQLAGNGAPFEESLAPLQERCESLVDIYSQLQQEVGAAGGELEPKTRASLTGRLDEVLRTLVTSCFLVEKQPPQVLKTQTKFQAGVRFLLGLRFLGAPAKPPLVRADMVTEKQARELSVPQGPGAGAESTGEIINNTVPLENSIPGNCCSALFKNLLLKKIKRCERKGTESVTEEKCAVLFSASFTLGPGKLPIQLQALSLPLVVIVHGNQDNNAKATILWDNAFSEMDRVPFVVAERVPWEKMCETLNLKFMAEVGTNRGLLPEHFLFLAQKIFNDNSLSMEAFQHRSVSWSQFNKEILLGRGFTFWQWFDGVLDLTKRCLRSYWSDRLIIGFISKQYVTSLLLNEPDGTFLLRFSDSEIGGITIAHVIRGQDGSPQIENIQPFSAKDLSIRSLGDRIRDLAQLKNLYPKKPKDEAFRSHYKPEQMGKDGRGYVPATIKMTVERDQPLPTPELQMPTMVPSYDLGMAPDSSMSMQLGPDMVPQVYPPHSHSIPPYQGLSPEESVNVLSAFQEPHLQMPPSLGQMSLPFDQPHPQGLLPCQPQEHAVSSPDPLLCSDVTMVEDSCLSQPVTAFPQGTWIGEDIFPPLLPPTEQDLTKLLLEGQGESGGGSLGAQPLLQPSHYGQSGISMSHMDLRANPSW
# [6] = biological target: S-HA-tagged BICD2, full length (UniProt Q8TD16); assay: co-IP; HEK293T transfected to express BICD2 and Mock or STAT1; with or without 1 μM RSL3 for 6 h; lysates precipitated with S-protein Agarose beads; immunoblot with anti-FLAG antibody (Fig. 7D)
substance,measurement,setting,value
"VHL (construct of Fig. 2C and Fig. 6B, tag not told in the text) (from UniProt P40337 1-213)",binding,[1],binds
GFP-tagged STAT1 (from UniProt P42224 1-750),binding,[2],binds
"FLAG-tagged VHL, full length (from UniProt P40337 1-213)",binding,mutant BICD2 (S615D),binds weakly
same,binding,[3],binds
GFP-tagged BICD2 (from UniProt Q8TD16 1-824),binding,[4],binds
same,binding,FLAG-tagged STAT4,binds
same,binding,[5],binds
same,binding,FLAG-tagged STAT3,binds
same,binding,FLAG-tagged STAT6,binds
"FLAG-tagged STAT1, full length (from UniProt P42224 1-750)",binding,[6],binds
